For at least one compound, name, drawing or mass did not settle the structure.
Tested on: Neospora caninum
Test: Screening against Neospora caninum cell cultures in vitro (VERO or ED host cells)
Type: cell-based
Conditions: Dose 10^−5 g/ml; microscopic evaluation 4 days after treatment
Method: Screening was conducted in 96-well plates (Falcon 3872). A monolayer of host cells (VERO or ED) were placed on a cell culture plate. Non-infected mono-layers of cells were cultured in two 50 ml tissue culture bottles ([…] cell culture area). The cell layer was detached with trypsin-EDTA (5 ml. Gibco 45300-019) in a CO2-culture cupboard at 37° C. After 10 minutes, most of the cells were detached. The cells were transferred with a 5 ml pipette into a 50 ml centrifuge tube (Greiner, B769331) containing about 1 ml warmed fetal calf serum. After centrifugation for 5 minutes at 1500 rpm (Varifuge 3.0, Heraeus), the liquid was removed and the cell pellet suspended in RPMI medium (100 ml, 95% RPMI 1640, 2% FCS, 1% L-glutamine, 1% sodium hydrogen carbonate, 1% penicillin/streptomycin). The cell suspension was pipetted into six 96-well plates at 150 μl per well. The coated cell culture plates were placed in an incubation cupboard at 37° C. under 5% CO2 for 24 hours. The cells were then infected with Neospora caninum tachyzoites at a concentration of 48,000 tachyzoites per well. This was followed by incubation at 37° C. under 5% CO2 for 24 hours.
The test compounds (0.5-1.5 mg) were weighed into 1.5 ml eppendorf vessels and dissolved in 1 ml dimethyl sulphoxide, corresponding to a dilution of about 1×10^−3 g ml^−1. […]

Structure (SMILES): CC1CCC2C(C)C(N3CCOCC3)OC3OC4(C)CCC1C32OO4 (stereo not shown) [Example 25]
- Evaluation of effect against Neospora caninum: T/1
